These results are taken from PMC11985131.

Chains of the proteins cited; added tags and fusions are not shown.
UniProt Q61188: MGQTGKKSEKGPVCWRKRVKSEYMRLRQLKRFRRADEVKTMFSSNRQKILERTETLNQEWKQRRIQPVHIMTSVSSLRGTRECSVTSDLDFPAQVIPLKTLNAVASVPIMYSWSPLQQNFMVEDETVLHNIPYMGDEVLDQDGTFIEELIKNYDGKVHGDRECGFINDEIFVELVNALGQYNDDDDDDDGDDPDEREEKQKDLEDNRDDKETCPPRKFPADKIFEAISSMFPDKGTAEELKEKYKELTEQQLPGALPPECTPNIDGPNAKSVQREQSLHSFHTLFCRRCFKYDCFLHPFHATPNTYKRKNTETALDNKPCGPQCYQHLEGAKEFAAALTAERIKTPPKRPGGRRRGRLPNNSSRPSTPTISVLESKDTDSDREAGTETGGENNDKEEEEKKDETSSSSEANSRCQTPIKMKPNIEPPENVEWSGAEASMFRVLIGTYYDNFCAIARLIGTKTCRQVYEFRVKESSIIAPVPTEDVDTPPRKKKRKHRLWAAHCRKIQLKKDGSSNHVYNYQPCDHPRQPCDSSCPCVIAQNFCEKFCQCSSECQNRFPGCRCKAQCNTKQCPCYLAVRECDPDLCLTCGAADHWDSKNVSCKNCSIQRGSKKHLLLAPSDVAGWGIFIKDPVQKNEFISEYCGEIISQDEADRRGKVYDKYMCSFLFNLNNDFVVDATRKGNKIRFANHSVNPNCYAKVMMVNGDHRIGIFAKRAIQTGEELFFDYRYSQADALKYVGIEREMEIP
UniProt P11440: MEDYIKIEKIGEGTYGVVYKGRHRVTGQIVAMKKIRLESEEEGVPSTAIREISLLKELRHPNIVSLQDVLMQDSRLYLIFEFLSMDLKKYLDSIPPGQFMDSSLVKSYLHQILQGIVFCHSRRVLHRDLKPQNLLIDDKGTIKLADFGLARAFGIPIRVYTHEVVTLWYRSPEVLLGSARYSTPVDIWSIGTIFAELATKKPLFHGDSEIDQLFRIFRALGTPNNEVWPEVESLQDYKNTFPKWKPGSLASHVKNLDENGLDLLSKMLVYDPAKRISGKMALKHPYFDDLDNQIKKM

The target of the experiment is enhancer of zeste homolog 2 (EZH2) (mouse (endogenous in mouse MSCs)) (UniProt Q61188). Briefly: co-IP; endogenous EZH2 immunoprecipitated with anti-EZH2 antibody from lysates of control and Hottip silenced MSCs; protein A + G agarose, 4 °C; western blotting for CDK1 and Akt. (In general: Immunoblotting shows a protein as a band on a membrane.)

Results are given in words; binding and its absence hold for the method and conditions named. Binding seen in cells or lysates may run through a third protein. Some binding calls cover weakened binding; strength is not graded here.

With CDK1 (from UniProt P11440 1-297), the binding entry was “binds”.
